# In paper PMC4671723:
# These are yes or no findings as the source states them, for the method shown. Binding seen in cells or lysates may run through a third protein. Some entries that bind do so weakly or less than the wild type. Where a sequence is shown, tags or fusion partners need not be part of it.
# T1: ALP1-GFP (ANTAGONIST OF LIKE HETEROCHROMATIN PROTEIN1 fused in frame to GFP) (Arabidopsis), Q94K49
# T1 chain: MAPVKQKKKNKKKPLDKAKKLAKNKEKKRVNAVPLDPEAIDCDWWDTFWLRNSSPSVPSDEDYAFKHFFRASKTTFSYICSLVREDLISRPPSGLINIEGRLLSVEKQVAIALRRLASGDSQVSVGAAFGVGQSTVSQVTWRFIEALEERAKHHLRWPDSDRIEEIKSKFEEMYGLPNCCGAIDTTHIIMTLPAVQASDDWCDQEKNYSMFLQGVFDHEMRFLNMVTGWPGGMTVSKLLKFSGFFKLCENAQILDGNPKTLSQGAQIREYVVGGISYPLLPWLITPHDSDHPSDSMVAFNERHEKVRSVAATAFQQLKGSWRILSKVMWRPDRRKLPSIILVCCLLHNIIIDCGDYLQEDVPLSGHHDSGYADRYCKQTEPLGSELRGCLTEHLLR
# Molecular target: T1, ALP1-GFP (ANTAGONIST OF LIKE …)
# Assay: co-IP; extracts from 35S::ALP1-GFP plants immunoprecipitated with anti-GFP antibodies different from those of the IP-MS; Western blot with anti-CLF or anti-MSI1 antibodies
# Settings: remark: other sources report otherwise
row,binding,Binder
1,binds,"MSI1, O22467 1-424 (protein) MGKDEEEMRGEIEERLINEEYKIWKKNTPFLYDLVITHALEWPSLTVEWLPDREEPSGKDYSVQKMILGTHTSESEPNYLMLAQVQLPLDDTESEARQYDDDRSEFGGFGCATGKVQIIQQINHDGEVNRARYMPQNPFIIATKTVNAEVYVFDYSKHPSKPPLDGACNPDLKLRGHSSEGYGLSWSKFKQGHLLSGSDDAQICLWDINATPKNKSLDAQQIFKAHEGVVEDVAWHLRHEYLFGSVGDDQYLLIWDLRSPSASKPVQSVVAHSMEVNCLAFNPFNEWVVATGSTDKTVKLFDLRKLSTALHTFDSHKEEVFQVGWNPKNETILASCCLGRRLMVWDLSRIDEEQTVEDAEDGPPELLFIHGGHTSKISDFSWNPCEDWVISSVAEDNILQIWQMAENIYHDEDDAPGEEPSKAS"
2,binds,"CURLY LEAF (CLF), P93831 1-902 (protein) MASEASPSSSATRSEPPKDSPAEERGPASKEVSEVIESLKKKLAADRCISIKKRIDENKKNLFAITQSFMRSSMERGGSCKDGSDLLVKRQRDSPGMKSGIDESNNNRYVEDGPASSGMVQGSSVPVKISLRPIKMPDIKRLSPYTTWVFLDRNQRMTEDQSVVGRRRIYYDQTGGEALICSDSEEEAIDDEEEKRDFLEPEDYIIRMTLEQLGLSDSVLAELASFLSRSTSEIKARHGVLMKEKEVSESGDNQAESSLLNKDMEGALDSFDNLFCRRCLVFDCRLHGCSQDLIFPAEKPAPWCPPVDENLTCGANCYKTLLKSGRFPGYGTIEGKTGTSSDGAGTKTTPTKFSSKLNGRKPKTFPSESASSNEKCALETSDSENGLQQDTNSDKVSSSPKVKGSGRRVGRKRNKNRVAERVPRKTQKRQKKTEASDSDSIASGSCSPSDAKHKDNEDATSSSQKHVKSGNSGKSRKNGTPAEVSNNSVKDDVPVCQSNEVASELDAPGSDESLRKEEFMGETVSRGRLATNKLWRPLEKSLFDKGVEIFGMNSCLIARNLLSGFKSCWEVFQYMTCSENKASFFGGDGLNPDGSSKFDINGNMVNNQVRRRSRFLRRRGKVRRLKYTWKSAAYHSIRKRITEKKDQPCRQFNPCNCKIACGKECPCLLNGTCCEKYCGCPKSCKNRFRGCHCAKSQCRSRQCPCFAADRECDPDVCRNCWVIGGDGSLGVPSQRGDNYECRNMKLLLKQQQRVLLGISDVSGWGAFLKNSVSKHEYLGEYTGELISHKEADKRGKIYDRENCSFLFNLNDQFVLDAYRKGDKLKFANHSPEPNCYAKVIMVAGDHRVGIFAKERILAGEELFYDYRYEPDRAPAWAKKPEAPGSKKDENVTPSVGRPKKLA"
